Results on 2 molecules are retold here after ChEMBL document CHEMBL5674883, “The Heterochromatin Landscape in Migrating Cells and the Importance of H3K27me3 for Associated Transcriptome Alterations” (Cells, 2018).

The chains behind the UniProt entries cited, without tags or fusion partners.
UniProt Q61188, whole entry: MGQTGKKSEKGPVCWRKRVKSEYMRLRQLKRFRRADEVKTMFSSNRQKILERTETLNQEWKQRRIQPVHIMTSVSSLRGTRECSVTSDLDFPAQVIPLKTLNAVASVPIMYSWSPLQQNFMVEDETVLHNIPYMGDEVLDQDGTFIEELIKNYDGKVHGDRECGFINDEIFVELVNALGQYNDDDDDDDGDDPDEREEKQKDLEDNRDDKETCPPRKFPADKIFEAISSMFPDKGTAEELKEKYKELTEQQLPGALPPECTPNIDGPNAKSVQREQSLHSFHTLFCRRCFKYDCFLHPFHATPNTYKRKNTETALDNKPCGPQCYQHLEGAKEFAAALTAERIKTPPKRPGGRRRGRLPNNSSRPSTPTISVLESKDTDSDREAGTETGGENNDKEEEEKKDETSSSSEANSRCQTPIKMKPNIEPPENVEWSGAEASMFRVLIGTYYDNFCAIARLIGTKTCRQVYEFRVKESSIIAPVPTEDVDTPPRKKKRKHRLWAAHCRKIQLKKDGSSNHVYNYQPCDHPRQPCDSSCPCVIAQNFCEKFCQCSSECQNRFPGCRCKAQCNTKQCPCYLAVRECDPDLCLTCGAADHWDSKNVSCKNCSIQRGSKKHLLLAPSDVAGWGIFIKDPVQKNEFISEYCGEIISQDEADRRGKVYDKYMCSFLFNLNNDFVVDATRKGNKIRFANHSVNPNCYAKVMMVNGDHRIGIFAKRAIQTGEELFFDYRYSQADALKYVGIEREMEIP

The structures appear in SMILES notation. The source gives many values for each of these; only a part stands here.

Common to all, as to assay type: cell-based
Assay [1] has as its target T1, RNA polymerase II (Mus musculus) (UniProt P08775+Q8CFI7+P97760+A0A3Q4L2S8+Q80UW8+P61219+P62488+Q923G2+P60898+O08740+Q63871+P62876). The assay is described as follows: Inhibition of RNA polymerase II in mouse B16-F1 migrating cells assessed as fold change in Ndufv3-RNA stability at 0.1 mM measured by ChIP-seq analysis relative to control cells.
Assay [2] deals with T1, RNA polymerase II (Mus musculus). The assay is described as follows: Inhibition of RNA polymerase II in mouse B16-F1 migrating cells assessed as fold change in Nckap5l-RNA stability at 0.1 mM measured by ChIP-seq analysis relative to control cells.
Assay [3] shares this target. The assay is described as follows: Inhibition of RNA polymerase II in mouse B16-F1 migrating cells assessed as fold change in Gng11-RNA stability at 0.1 mM measured by ChIP-seq analysis relative to control cells.
The target is the same in assay [4]. The assay is described as follows: Inhibition of RNA polymerase II in mouse B16-F1 migrating cells assessed as fold change in Tmem134-RNA stability at 0.1 mM measured by ChIP-seq analysis relative to control cells.
The target is the same in assay [5]. The experiment in a line: Inhibition of RNA polymerase II in mouse B16-F1 migrating cells assessed as fold change in Dapk3-RNA stability at 0.1 mM measured by ChIP-seq analysis relative to control cells.
Assay [6] shares this target. The assay is described as follows: Inhibition of RNA polymerase II in mouse B16-F1 migrating cells assessed as fold change in Vamp2-RNA stability at 0.1 mM measured by ChIP-seq analysis relative to control cells.
Assay [7] shares this target. The assay is described as follows: Inhibition of RNA polymerase II in mouse B16-F1 migrating cells assessed as fold change in Metap2-RNA stability at 0.1 mM measured by ChIP-seq analysis relative to control cells.
The target is the same in assay [8]. The experiment in a line: Inhibition of RNA polymerase II in mouse B16-F1 migrating cells assessed as fold change in Irf2bp2-RNA stability at 0.1 mM measured by ChIP-seq analysis relative to control cells.
The target is the same in assay [9]. The experiment in a line: Inhibition of RNA polymerase II in mouse B16-F1 migrating cells assessed as fold change in Lims1-RNA stability at 0.1 mM measured by ChIP-seq analysis relative to control cells.
Assay [10] has the same target. The experiment in a line: Inhibition of RNA polymerase II in mouse B16-F1 migrating cells assessed as fold change in Blm-RNA stability at 0.1 mM measured by ChIP-seq analysis relative to control cells.
Assay [11] has the same target. The experiment in a line: Inhibition of RNA polymerase II in mouse B16-F1 migrating cells assessed as fold change in Casd1-RNA stability at 0.1 mM measured by ChIP-seq analysis relative to control cells.
The target is the same in assay [12]. The experiment in a line: Inhibition of RNA polymerase II in mouse B16-F1 migrating cells assessed as fold change in Tax1bp1-RNA stability at 0.1 mM measured by ChIP-seq analysis relative to control cells.
The target is the same in assay [13]. The assay is described as follows: Inhibition of RNA polymerase II in mouse B16-F1 migrating cells assessed as fold change in Utp15-RNA stability at 0.1 mM measured by ChIP-seq analysis relative to control cells.
For assay [14] the target is unchanged. The experiment in a line: Inhibition of RNA polymerase II in mouse B16-F1 migrating cells assessed as fold change in Cul5-RNA stability at 0.1 mM measured by ChIP-seq analysis relative to control cells.
Assay [15] shares this target. The experiment in a line: Inhibition of RNA polymerase II in mouse B16-F1 migrating cells assessed as fold change in Otud4-RNA stability at 0.1 mM measured by ChIP-seq analysis relative to control cells.
Assay [16] has the same target. The experiment in a line: Inhibition of RNA polymerase II in mouse B16-F1 migrating cells assessed as fold change in Smc1a-RNA stability at 0.1 mM measured by ChIP-seq analysis relative to control cells.
Assay [17] has the same target. The assay is described as follows: Inhibition of RNA polymerase II in mouse B16-F1 migrating cells assessed as fold change in Zfp445-RNA stability at 0.1 mM measured by ChIP-seq analysis relative to control cells.
Assay [18] has the same target. The assay is described as follows: Inhibition of RNA polymerase II in mouse B16-F1 migrating cells assessed as fold change in Zfp597-RNA stability at 0.1 mM measured by ChIP-seq analysis relative to control cells.
Assay [19] deals with Histone-lysine N-methyltransferase EZH2 (Mus musculus) (UniProt Q61188). The experiment in a line: Inhibition of EZH2 in mouse B16-F1 migrating cells assessed as fold change in H3K27me3-dependent regulated Ier5l-mRNA expression at 3 uM measured by ChIP-seq analysis relative to control cells.
Assay [20] shares this target. The experiment in a line: Inhibition of EZH2 in mouse B16-F1 migrating cells assessed as fold change in H3K27me3-dependent regulated Atoh8-mRNA expression at 3 uM measured by ChIP-seq analysis relative to control cells.
For assay [21] the target is unchanged. The experiment in a line: Inhibition of EZH2 in mouse B16-F1 migrating cells assessed as fold change in H3K27me3-buffered regulated Kcnj9-mRNA expression at 3 uM measured by ChIP-seq analysis relative to control cells.
Assay [22] shares this target. The assay is described as follows: Inhibition of EZH2 in mouse B16-F1 migrating cells assessed as fold change in H3K27me3-buffered regulated Trp53inp2-mRNA expression at 3 uM measured by ChIP-seq analysis relative to control cells.
The target is the same in assay [23]. The experiment in a line: Inhibition of EZH2 in mouse B16-F1 migrating cells assessed as fold change in H3K27me3-buffered regulated Tmbim1-mRNA expression at 3 uM measured by ChIP-seq analysis relative to control cells.
For assay [24] the target is unchanged. The experiment in a line: Inhibition of EZH2 in mouse B16-F1 migrating cells assessed as fold change in H3K27me3-buffered regulated Lrch3-mRNA expression at 3 uM measured by ChIP-seq analysis relative to control cells.
For assay [25] the target is unchanged. The assay is described as follows: Inhibition of EZH2 in mouse B16-F1 migrating cells assessed as fold change in H3K27me3-buffered regulated Cntrl-mRNA expression at 3 uM measured by ChIP-seq analysis relative to control cells.
For assay [26] the target is unchanged. The experiment in a line: Inhibition of EZH2 in mouse B16-F1 migrating cells assessed as fold change in H3K27me3-buffered regulated Snrnp48-mRNA expression at 3 uM measured by ChIP-seq analysis relative to control cells.
For assay [27] the target is unchanged. The experiment in a line: Inhibition of EZH2 in mouse B16-F1 migrating cells assessed as fold change in H3K27me3-buffered regulated Ccdc88a-mRNA expression at 3 uM measured by ChIP-seq analysis relative to control cells.
Assay [28] shares this target. The experiment in a line: Inhibition of EZH2 in mouse B16-F1 migrating cells assessed as fold change in H3K27me3-buffered regulated Rad54b-mRNA expression at 3 uM measured by ChIP-seq analysis relative to control cells.
Assay [29] shares this target. The assay is described as follows: Inhibition of EZH2 in mouse B16-F1 migrating cells assessed as fold change in H3K27me3-buffered regulated Iqcc-mRNA expression at 3 uM measured by ChIP-seq analysis relative to control cells.
The target is the same in assay [30]. The experiment in a line: Inhibition of EZH2 in mouse B16-F1 migrating cells assessed as fold change in H3K27me3-buffered regulated Zfp40-mRNA expression at 3 uM measured by ChIP-seq analysis relative to control cells.

Take `OC[C@H]1O[C@@H](n2cnc3cc(Cl)c(Cl)cc32)[C@H](O)[C@@H]1O`: the log2FC in [1] is 0.89; in [2], 0.68; in assay [3] it was 0.66; in assay [4], 0.57; in [5], 0.47; in assay [6], 0.45. Further, the log2FC in assay [7] was -0.39; in [8], -0.46; in assay [9], -0.46; in [10] it was -0.57; in assay [11] it was -0.59; in assay [12], -0.6. Besides, the log2FC was -0.61 in assay [13]; -0.61 in assay [14]; -0.69 in assay [15]; -0.72 in assay [16]; -0.8 in assay [17]; -1.12 in [18].

Consider `CCCc1cc(C)[nH]c(=O)c1CNC(=O)c1cc(-c2ccnc(N3CCN(C)CC3)c2)cc2c1cnn2C(C)C`, for which the log2FC in [19] was -0.06; in [20], -0.03; in assay [21], 1.07; in assay [22], 0.53; in [23], 0.44; in [24] it was -0.39. Besides, the log2FC was -0.43 in assay [25]; -0.45 in assay [26]; -0.49 in assay [27]; -0.52 in assay [28]; -0.65 in [29]; -0.65 in assay [30].
